In publication PMC7819943, “Rice protein-binding microarrays: a tool to detect cis-acting elements near promoter regions in rice”:
The other results are listed elsewhere or left out.

Each sequence was assayed against T1, OsSMF1 (Oryza sativa, UniProt Q6ZLB0 1-436) (assay: protein-binding microarray (RPBM); PBS, 2% BSA, 51.3 ng/ul salmon testes DNA, 50 uM zinc acetate, 200 nM TF, 25 C, 1 h; high values mean tight binding). Conditions: protein: recombinant; tags: N-terminal polyhistidine and DsRed monomer fusion (pET32a); chain copies: 2; label: CyDye5-dUTP incorporated in the synthesized complementary strand; 3' TTTTT single-stranded linker to array surface; dsDNA, one strand shown.
T1 sequence: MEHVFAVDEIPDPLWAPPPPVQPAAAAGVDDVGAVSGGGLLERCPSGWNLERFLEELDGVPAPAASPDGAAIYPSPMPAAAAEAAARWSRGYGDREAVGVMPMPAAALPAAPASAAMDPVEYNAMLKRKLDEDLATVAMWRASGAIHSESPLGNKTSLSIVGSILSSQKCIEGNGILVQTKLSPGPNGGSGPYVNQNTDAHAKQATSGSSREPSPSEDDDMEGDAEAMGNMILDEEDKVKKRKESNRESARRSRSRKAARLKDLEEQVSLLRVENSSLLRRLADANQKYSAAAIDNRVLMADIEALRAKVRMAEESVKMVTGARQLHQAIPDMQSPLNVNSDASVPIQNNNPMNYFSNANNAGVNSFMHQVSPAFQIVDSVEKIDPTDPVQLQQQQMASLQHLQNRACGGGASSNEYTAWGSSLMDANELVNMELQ
Outline: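 Transcription factors were each fused at the N-terminus to a polyhistidine tag plus DsRed and expressed in E. coli BL21-CodonPlus before Ni–NTA purification. Binding to a double-stranded custom Agilent array was carried out with 200 nM protein at 25 °C for 1 h in PBS, 2% BSA, salmon testes DNA and 50 µM zinc acetate. The binding signal is per-feature fluorescence intensity, in arbitrary units, on an Axon 4000B scanner.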

Row | Sequence | binding signal
1 | TCCCGCAGGAGTTCCACCCACGTGTCATAAACCATTACAGCGGAGTCACCTAGTGCAG | 12800 fluorescence intensity (a.u.)
2 | CAGAATTTAGCAACATTAGTTGCTGGTTTGTTGATTGCTTCGGAGTCACCTAGTGCAG | 3440 fluorescence intensity (a.u.)
3 | CAAGCGTGATGCGTCGACGTCACGAACCAATCTGCAAGGGCGGAGTCACCTAGTGCAG | 4800 fluorescence intensity (a.u.)
4 | TCCACGCCGCCGTCGTCGGCGTCCTCCGCCGCCGTGTCCTCGGAGTCACCTAGTGCAG | 3610 fluorescence intensity (a.u.)
5 | TCGAGCTGCTTTTCACGAGTTTGCACTTTGCATGACAAGGCGGAGTCACCTAGTGCAG | 3240 fluorescence intensity (a.u.)
6 | GATATACTATCCTCCAATGAGTCATCCTGTTTCACTGCTACGGAGTCACCTAGTGCAG | 3400 fluorescence intensity (a.u.)
7 | GCTAGTACCGGCATCGCCTGCTTCGCTTTCGTCACGTTCTCGGAGTCACCTAGTGCAG | 3990 fluorescence intensity (a.u.)
8 | CGCTAGTGCGGCGCGGCCCACCAAGGCACCAACACGTAAGCGGAGTCACCTAGTGCAG | 5610 fluorescence intensity (a.u.)
9 | CTCGGCATCCGCATCCGCGCGACGACGACGACGAGGAGGACGGAGTCACCTAGTGCAG | 8090 fluorescence intensity (a.u.)
10 | CCCTGATGACATGGCAATCTAGTTTCATTGAATCTAGGAGCGGAGTCACCTAGTGCAG | 12100 fluorescence intensity (a.u.)
11 | GGGCTCTCCGCTCCTCCGCCGCATCATGTTGTGGAGCTCCCGGAGTCACCTAGTGCAG | 3950 fluorescence intensity (a.u.)
12 | TACTATATTGTTTGGTATTTGCAGGTTCACGTGTCAAAGTCGGAGTCACCTAGTGCAG | 4140 fluorescence intensity (a.u.)
13 | ATCCGTCCGTTTCGTTCCGTACGAACCGCCGGCGTTCAAACGGAGTCACCTAGTGCAG | 3250 fluorescence intensity (a.u.)
14 | ATAAAGTGATTTTCGGTTGTGATGATGCGGTCTATATATACGGAGTCACCTAGTGCAG | 4260 fluorescence intensity (a.u.)
15 | TTACCAGATTAATATTAATGTAATCCGTGTGTCAGCAGGCCGGAGTCACCTAGTGCAG | 6760 fluorescence intensity (a.u.)
16 | AAAGAACCCAAGTGTATAGAAGTACACGTCTAACCGGTGTCGGAGTCACCTAGTGCAG | 3230 fluorescence intensity (a.u.)
17 | GACATAAAGATTTACCCAGCTTTATTTAGTAAGCTTAGTGCGGAGTCACCTAGTGCAG | 4710 fluorescence intensity (a.u.)
18 | TAAAGTTGTTCTCCCAAGTTGCTGTATTTTAAAATATCCACGGAGTCACCTAGTGCAG | 16100 fluorescence intensity (a.u.)
19 | GTAAAACTTTTATATATTTGTTCGTAGCGACTTGAAAGCCCGGAGTCACCTAGTGCAG | 3420 fluorescence intensity (a.u.)
20 | CCATTTGTACCAACTCATGATCGTCTTATCTTAGGACCTGCGGAGTCACCTAGTGCAG | 3160 fluorescence intensity (a.u.)
21 | ACAAACCGTCGGCCGCGCACTCCACCCCGTTCGCTCCTCTCGGAGTCACCTAGTGCAG | 3140 fluorescence intensity (a.u.)

Row | Sequence | binding signal
22 | TACATTGCCACATACGATAGGCTTTTACTCCTTCATTAAACGGAGTCACCTAGTGCAG | 3600 fluorescence intensity (a.u.)
23 | TAACATCGATTTTATGTTGATCACACACGTCACAGGTGGTCGGAGTCACCTAGTGCAG | 10400 fluorescence intensity (a.u.)
24 | CGTTGAGCGCGCGCGTGTCCGGCGGGACACCCTCCTCCAGCGGAGTCACCTAGTGCAG | 3700 fluorescence intensity (a.u.)
25 | GAGCTTCTAAACATTGGTCATTGGCAGTAAATAGTGCAGACGGAGTCACCTAGTGCAG | 28900 fluorescence intensity (a.u.)
26 | TGCAAACACCTGCACATCACTACGCCGACAGCTTAAAATTCGGAGTCACCTAGTGCAG | 3890 fluorescence intensity (a.u.)
27 | TCGTGAGGTCTATACAAATTTTGTCCTGTTTTCCCATCTGCGGAGTCACCTAGTGCAG | 3170 fluorescence intensity (a.u.)
28 | CCTCCTCGTCAGTTTGCCCTTGTCCACCGCCTCCGCCTCCCGGAGTCACCTAGTGCAG | 3510 fluorescence intensity (a.u.)
29 | ACGACTAGGATTCGCTGACACGTGGAAGATCGTTTAACTCCGGAGTCACCTAGTGCAG | 11600 fluorescence intensity (a.u.)
30 | AAGTACGCTGCCGCCGCTGACATCACCCTCCCTAACCCGGCGGAGTCACCTAGTGCAG | 11000 fluorescence intensity (a.u.)
31 | GTATTTGGTTGGTCACCAACAAATTTCGTTCATGGCTACACGGAGTCACCTAGTGCAG | 3980 fluorescence intensity (a.u.)
32 | GTCACATCATCATGCATTAATAAAATGCCACGTCATCATCCGGAGTCACCTAGTGCAG | 50000 fluorescence intensity (a.u.)
33 | GTGCCTCACGGTCCATAGCCAAGTCATTCTCCACGGCGTCCGGAGTCACCTAGTGCAG | 4120 fluorescence intensity (a.u.)
34 | AAGATTTGTGTGATACCACATAAGCCTAACTTCTCTCATCCGGAGTCACCTAGTGCAG | 3330 fluorescence intensity (a.u.)
35 | CGTATATCTGATGTGACACGTCCAAATTTTACAGCCCTGGCGGAGTCACCTAGTGCAG | 4740 fluorescence intensity (a.u.)
36 | CGATGGGCTTAACTCCAGCCGACATGCATATGACAAGTTGCGGAGTCACCTAGTGCAG | 3920 fluorescence intensity (a.u.)
37 | ACTCCACCGTACCAACCGCGGCGCGGCCGATCGATCGACGCGGAGTCACCTAGTGCAG | 21900 fluorescence intensity (a.u.)
38 | AGAGCAATATACACATCAAGCTCTGACTCATCTGTAATGTCGGAGTCACCTAGTGCAG | 8420 fluorescence intensity (a.u.)
39 | TCCCACATTTAATTCCCCATACATGTGTCCAAACATTTAACGGAGTCACCTAGTGCAG | 27900 fluorescence intensity (a.u.)
40 | TTGCTGTGCTGTATGTATGTGTGTGCATGATTTTGTCGTTCGGAGTCACCTAGTGCAG | 4230 fluorescence intensity (a.u.)
41 | TCTTTGGATTTGAAACTTGGCGGTGGTGGATTGAGGCGGTCGGAGTCACCTAGTGCAG | 25700 fluorescence intensity (a.u.)
42 | GCGCACACCAGCGTGGAGAATGACGTAGCTAAAACCTCACCGGAGTCACCTAGTGCAG | 4280 fluorescence intensity (a.u.)

Some of the entries so far, tab-delimited.
Row	Sequence	binding signal
36	CGATGGGCTTAACTCCAGCCGACATGCATATGACAAGTTGCGGAGTCACCTAGTGCAG	3920 fluorescence intensity (a.u.)
37	ACTCCACCGTACCAACCGCGGCGCGGCCGATCGATCGACGCGGAGTCACCTAGTGCAG	21900 fluorescence intensity (a.u.)
